Data published in the supplement of paper PMC11732987, “Enantioselective OTUD7B fragment discovery through chemoproteomics screening and high-throughput optimisation” (Communications Chemistry, 2025).
Some of the results follow. The data scatter; read single values as rough.

Protein sequences, listed by entry. Tags and fused reporters are not part of them. Lines headed by an entry give the natural chain unless they say otherwise; changes in a name come on top. Residues count along the entry.
UniProt Q5T5U3: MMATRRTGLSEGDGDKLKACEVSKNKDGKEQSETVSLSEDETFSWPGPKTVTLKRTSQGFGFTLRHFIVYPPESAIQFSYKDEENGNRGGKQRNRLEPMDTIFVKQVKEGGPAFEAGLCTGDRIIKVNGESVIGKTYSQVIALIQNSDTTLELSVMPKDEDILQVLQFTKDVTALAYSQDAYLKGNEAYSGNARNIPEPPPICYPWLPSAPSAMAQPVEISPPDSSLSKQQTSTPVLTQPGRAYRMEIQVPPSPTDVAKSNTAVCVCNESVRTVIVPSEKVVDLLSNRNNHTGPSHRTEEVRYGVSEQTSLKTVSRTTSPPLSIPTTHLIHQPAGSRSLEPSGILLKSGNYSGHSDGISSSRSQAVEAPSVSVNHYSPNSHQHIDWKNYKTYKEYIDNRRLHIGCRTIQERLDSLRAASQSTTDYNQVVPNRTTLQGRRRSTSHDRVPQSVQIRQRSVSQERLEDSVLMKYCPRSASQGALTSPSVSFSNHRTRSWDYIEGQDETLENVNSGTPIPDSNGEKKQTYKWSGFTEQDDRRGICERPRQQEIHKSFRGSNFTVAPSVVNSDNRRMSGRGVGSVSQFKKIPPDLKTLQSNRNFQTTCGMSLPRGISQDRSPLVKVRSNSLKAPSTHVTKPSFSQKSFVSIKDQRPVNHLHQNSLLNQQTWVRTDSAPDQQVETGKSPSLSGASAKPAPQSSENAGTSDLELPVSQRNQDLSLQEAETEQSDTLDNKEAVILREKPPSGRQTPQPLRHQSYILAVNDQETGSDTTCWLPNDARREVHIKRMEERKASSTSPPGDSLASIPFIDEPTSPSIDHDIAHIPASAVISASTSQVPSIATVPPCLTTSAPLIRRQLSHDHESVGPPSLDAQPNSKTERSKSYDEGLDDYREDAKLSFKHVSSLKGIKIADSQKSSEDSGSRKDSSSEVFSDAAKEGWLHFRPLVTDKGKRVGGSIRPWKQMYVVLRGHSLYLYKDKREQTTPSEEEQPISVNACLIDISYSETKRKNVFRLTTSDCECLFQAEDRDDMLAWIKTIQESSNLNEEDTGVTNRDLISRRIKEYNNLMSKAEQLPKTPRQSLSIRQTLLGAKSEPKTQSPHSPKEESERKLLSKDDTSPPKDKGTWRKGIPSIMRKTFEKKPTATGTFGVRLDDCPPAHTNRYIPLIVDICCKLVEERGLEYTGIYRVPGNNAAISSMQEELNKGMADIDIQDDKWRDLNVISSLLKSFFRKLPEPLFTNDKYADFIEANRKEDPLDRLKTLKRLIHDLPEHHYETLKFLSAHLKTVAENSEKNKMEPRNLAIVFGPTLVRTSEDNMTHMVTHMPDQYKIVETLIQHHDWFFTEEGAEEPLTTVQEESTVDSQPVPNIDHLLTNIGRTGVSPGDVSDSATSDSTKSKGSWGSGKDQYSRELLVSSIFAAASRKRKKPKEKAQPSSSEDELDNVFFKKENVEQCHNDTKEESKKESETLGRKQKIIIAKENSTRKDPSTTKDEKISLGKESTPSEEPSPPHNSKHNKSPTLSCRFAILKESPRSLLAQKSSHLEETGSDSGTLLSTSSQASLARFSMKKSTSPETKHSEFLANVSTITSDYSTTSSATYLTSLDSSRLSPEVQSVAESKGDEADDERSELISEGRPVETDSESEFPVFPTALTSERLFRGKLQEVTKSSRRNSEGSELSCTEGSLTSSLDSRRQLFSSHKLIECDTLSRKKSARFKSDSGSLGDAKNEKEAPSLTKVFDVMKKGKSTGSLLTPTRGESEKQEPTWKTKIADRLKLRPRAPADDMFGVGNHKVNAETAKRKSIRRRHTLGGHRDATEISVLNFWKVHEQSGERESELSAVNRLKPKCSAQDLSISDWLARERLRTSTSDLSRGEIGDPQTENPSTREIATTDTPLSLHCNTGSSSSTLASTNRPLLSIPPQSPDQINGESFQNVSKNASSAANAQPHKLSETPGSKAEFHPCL
UniProt Q13795: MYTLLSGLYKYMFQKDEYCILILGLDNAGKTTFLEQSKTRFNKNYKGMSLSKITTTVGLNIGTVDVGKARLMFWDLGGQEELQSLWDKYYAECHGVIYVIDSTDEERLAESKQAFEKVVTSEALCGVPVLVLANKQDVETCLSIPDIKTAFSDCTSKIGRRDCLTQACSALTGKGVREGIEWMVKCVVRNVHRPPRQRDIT
UniProt Q92870: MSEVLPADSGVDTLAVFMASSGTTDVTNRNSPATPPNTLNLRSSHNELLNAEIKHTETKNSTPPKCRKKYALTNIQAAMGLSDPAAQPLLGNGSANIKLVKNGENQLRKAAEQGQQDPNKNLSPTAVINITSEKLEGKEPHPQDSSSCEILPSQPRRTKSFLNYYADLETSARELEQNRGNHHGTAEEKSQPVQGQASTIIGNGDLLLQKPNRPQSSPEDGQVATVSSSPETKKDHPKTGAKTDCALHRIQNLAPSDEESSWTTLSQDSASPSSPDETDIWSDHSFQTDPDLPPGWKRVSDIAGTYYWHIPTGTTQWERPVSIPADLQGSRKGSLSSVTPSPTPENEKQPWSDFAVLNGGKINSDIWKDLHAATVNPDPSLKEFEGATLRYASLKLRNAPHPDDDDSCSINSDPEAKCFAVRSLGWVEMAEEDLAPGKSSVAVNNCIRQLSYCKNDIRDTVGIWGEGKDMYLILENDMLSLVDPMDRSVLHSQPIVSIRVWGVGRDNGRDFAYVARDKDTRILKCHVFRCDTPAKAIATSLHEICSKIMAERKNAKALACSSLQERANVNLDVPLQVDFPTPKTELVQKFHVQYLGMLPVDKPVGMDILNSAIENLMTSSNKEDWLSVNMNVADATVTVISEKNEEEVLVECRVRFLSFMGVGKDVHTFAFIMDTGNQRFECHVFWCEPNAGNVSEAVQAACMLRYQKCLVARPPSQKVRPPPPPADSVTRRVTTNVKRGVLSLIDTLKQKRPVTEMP
UniProt Q15052: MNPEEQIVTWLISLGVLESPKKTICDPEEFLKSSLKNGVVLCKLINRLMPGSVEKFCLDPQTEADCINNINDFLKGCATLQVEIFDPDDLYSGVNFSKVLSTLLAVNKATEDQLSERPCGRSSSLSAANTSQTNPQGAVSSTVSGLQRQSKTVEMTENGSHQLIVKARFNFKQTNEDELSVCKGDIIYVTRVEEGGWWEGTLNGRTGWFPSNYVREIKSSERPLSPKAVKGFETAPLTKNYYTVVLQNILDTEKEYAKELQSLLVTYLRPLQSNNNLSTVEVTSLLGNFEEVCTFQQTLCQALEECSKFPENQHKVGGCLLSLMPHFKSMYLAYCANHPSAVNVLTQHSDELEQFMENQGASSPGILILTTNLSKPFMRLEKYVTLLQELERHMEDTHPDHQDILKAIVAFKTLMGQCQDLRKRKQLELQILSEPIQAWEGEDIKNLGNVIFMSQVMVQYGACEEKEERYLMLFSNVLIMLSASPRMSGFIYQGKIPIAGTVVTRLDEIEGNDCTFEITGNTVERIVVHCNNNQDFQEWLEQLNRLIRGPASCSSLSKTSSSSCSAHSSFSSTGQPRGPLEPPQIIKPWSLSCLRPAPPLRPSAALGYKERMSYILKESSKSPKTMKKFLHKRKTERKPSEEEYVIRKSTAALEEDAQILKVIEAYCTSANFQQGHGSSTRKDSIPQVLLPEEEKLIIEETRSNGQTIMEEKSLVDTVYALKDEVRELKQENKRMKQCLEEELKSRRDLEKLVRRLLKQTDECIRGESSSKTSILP
UniProt O15085, 399-420: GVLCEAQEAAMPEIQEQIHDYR
UniProt Q68EM7, 301-325: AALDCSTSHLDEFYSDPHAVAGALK
UniProt Q9Y4X5: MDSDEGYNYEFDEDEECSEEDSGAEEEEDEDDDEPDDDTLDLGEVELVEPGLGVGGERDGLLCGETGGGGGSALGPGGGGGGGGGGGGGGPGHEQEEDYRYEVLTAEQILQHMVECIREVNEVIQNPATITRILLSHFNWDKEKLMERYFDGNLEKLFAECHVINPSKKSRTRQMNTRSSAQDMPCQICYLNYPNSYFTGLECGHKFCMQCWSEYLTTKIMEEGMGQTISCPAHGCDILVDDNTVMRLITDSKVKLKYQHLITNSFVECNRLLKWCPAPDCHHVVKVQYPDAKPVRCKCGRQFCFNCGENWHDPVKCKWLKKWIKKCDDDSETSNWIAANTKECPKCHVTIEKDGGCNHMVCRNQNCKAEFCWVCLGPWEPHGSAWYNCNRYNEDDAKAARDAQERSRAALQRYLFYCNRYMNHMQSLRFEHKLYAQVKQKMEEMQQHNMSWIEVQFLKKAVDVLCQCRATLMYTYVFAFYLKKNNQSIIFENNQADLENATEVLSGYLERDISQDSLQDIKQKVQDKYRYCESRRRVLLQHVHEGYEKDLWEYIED
UniProt Q9NXU5: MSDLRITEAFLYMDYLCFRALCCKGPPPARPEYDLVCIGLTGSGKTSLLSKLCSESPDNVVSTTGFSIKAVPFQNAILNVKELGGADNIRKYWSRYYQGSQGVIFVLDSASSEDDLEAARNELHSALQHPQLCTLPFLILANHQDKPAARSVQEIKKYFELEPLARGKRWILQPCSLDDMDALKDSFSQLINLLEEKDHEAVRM
UniProt O95782: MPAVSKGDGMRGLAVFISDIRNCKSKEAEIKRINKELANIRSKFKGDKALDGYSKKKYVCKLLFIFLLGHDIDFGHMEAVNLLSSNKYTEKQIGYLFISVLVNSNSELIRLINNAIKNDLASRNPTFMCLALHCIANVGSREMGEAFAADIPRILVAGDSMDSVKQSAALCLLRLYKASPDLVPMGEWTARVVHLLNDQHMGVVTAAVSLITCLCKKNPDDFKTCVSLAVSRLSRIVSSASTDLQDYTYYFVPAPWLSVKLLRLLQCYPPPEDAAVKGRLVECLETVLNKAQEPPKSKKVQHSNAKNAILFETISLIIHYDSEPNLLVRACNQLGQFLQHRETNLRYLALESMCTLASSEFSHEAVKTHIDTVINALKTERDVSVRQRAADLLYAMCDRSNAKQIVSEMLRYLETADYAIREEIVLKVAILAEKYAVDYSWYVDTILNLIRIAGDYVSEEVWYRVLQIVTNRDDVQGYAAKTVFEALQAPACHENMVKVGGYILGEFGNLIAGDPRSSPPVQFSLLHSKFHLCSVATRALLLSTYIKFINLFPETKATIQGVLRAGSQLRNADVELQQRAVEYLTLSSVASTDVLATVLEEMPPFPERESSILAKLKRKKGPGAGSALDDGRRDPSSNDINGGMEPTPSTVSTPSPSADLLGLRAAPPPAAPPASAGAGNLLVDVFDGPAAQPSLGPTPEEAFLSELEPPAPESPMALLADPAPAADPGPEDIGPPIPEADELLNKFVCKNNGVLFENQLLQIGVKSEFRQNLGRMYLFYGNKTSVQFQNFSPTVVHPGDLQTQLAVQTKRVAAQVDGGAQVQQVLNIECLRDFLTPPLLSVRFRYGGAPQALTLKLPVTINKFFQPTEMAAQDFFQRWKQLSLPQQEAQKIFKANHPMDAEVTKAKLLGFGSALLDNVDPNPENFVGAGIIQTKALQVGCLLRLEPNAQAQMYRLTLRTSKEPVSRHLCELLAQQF
UniProt Q6NXE6: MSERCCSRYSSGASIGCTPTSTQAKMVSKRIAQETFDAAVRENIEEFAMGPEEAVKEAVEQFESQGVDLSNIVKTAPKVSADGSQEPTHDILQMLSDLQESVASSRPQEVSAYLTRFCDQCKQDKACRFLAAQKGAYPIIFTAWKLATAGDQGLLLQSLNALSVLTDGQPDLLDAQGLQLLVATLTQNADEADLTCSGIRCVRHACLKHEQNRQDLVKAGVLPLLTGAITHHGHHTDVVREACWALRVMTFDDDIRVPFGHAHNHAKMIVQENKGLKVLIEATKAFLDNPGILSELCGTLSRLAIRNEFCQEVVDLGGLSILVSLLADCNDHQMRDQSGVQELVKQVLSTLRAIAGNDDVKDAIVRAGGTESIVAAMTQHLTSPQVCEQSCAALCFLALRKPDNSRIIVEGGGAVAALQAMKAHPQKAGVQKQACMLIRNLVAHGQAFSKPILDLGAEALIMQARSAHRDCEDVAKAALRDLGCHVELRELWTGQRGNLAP
UniProt P18085: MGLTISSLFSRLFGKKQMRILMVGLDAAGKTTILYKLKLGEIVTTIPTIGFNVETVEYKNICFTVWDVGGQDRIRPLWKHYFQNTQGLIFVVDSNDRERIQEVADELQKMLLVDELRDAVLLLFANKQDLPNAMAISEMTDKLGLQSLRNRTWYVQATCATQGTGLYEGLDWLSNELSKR

Key:
[1] = compound: ClCC(=O)N[C@@H]1CCCc2ccccc12; experiment: log2 mean competition ratio of IA-DTB cysteine labelling (DMSO/compound) (log2 ratio); higher = stronger cysteine engagement by compound; settings: treatment time: 4 h, cell line lysate: HEK293T
Protocol: (§1)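 IA-DTB competitive cysteine chemoproteomics in HEK293T RIPA lysate. Lysates were treated with compound 29 or 30 at 50 or 200 µM for 4 h, then IA-DTB (500 µM, 1 h), trypsin-digested, NeutrAvidin-enriched and analysed by diaPASEF. Competition ratio = intensity DMSO / intensity compound (n=4 treated, n=64 DMSO); binding: mean log2 CR ≥ 1 and p ≤ 0.05 plus QC filters. Target is the cysteine site.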

[2] = compound: ClCC(=O)N[C@H]1CCCc2ccccc12; experiment: as above; settings: treatment time: 4 h, cell line lysate: HEK293T
Protocol: as §1

Target | log2 mean competition ratio ([1]; 50 µM) | log2 mean competition ratio ([1]; 200 µM) | log2 mean competition ratio ([2]; 50 µM) | log2 mean competition ratio ([2]; 200 µM)
APC C520 (UniProt P25054) | -0.0959 | -0.105 | -0.403 | 0.13
APAF1 C426 (UniProt O14727) | -0.0665 | -0.0423 | 0.0626 | 0.0692
AP1G1 C392 | -0.342 | -0.328 | 0.268 | -0.474
ARHGAP21 C1700 (UniProt Q5T5U3) | 0.597 | 0.397 | 0.173 | 0.477
ARFRP1 C141 (UniProt Q13795) | -0.0676 | -0.235 | 0.0468 | 0.0897
APBB2 C560 (UniProt Q92870) | 0.177 | 0.124 | 0.272 | 0.214
ARHGEF6 C182 (UniProt Q15052) | -0.19 | 0.000692 | -0.61 | 0.127
ANKLE2 C91 (UniProt Q86XL3) | 0.194 | -0.0406 | 0.0855 | -0.134
ARHGEF11 C402 (UniProt O15085) | 0.299 | -0.0468 | 0.318 | -0.075
ARHGAP17 C305 (UniProt Q68EM7) | -0.0619 | 0.0501 | -0.309 | -0.156
ARHGAP17 C53 (UniProt Q68EM7) | -0.0804 | -0.0336 | -0.292 | -0.0379
ARMC8 C661 | 0.0359 | 0.344 | -0.283 | 0.399
ARIH1 C347 (UniProt Q9Y4X5) | -0.45 | -0.312 | -0.475 | -0.43
ARL15 C53 (UniProt Q9NXU5) | -0.319 | 0.186 | 0.19 | 0.14
ARID5B C393 | 0.298 | 0.33 | 0.104 | 0.192
ARHGAP11A C908 (UniProt Q6P4F7) | -0.0845 | 0.0683 | -0.000656 | 0.0271
AP2A1 C283 (UniProt O95782) | 0.641 | -0.0133 | -0.0924 | -0.00671
ARMC6 C484 (UniProt Q6NXE6) | -0.0109 | 0.0522 | 0.281 | 0.0829
ARF4 C62 (UniProt P18085) | 0.151 | 0.0297 | 0.551 | 0.0351
ARPIN C183 (UniProt Q7Z6K5) | -0.0776 | 0.477 | -0.0467 | 0.221
ARHGEF6 C119 (UniProt Q15052) | -0.176 | 0.0742 | -0.272 | -0.00564

Single values from the entries so far.
log2 mean competition ratio ([1]; 200 µM) with ANKLE2 C91 (UniProt Q86XL3) reads -0.0406
log2 mean competition ratio ([1]; 200 µM) with ARMC6 C484 (UniProt Q6NXE6) reads 0.0522
